The values that follow come from PMC5481773, “Structural insights into the function of ZRANB3 in replication stress response” (Nature Communications, 2017).

Residue numbers refer to the chain shown, from its start. Construct, isoform or probe ends are uncertain for at least one entry. A weaker result is weaker than the reference pair of the same experiment. At least one verdict was read from the data and is not stated in words by the source. Protein sequences can lack the tags named with them.

For data set [1], the target named is T1, ZRANB3 HNH domain R1009A (human) (UniProt Q5FWF4).
T1 sequence (looked up): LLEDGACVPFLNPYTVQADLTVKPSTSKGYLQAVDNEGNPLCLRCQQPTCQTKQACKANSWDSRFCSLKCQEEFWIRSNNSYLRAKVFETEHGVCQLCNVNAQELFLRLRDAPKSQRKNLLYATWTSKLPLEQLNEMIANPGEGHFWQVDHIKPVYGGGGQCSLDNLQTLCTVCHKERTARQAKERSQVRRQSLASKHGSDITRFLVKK
Description: EMSA. The following applies: 4 mM EDTA, 4-32 uM protein, EMSA: 50 mM Tris-HCl pH 7.5, 5% glycerol, 1 mM DTT, 0.1 mg/ml BSA, 1 nM DNA, 4 C, 30 min, 5% native PAGE in 0.5x TBE, recombinant protein, residues 871-1079, protein details: N-terminal His6-Trx (pNH-TrxT), label: 5' 32P on strand 1 (S7).

Data set [2] concerns the target T2, ZRANB3 HNH domain K1046A,R1048A (human) (UniProt Q5FWF4).
T2 sequence (looked up): T1 sequence (looked up) with A139R, K176A, R178A
Briefly: EMSA. As to conditions: 4 mM EDTA, 4-32 uM protein, EMSA: 50 mM Tris-HCl pH 7.5, 5% glycerol, 1 mM DTT, 0.1 mg/ml BSA, 1 nM DNA, 4 C, 30 min, 5% native PAGE in 0.5x TBE, recombinant protein, residues 871-1079, protein details: N-terminal His6-Trx (pNH-TrxT), label: 5' 32P on strand 1 (S7).

On to “CCTCGATCCTACCAACCAGATGACGCGCTGCTACGTGCTACCGGAAGTCG / CGACTTCCGGTAGCACGTAGCAGCGGCTCGCCACGAACTGCACTCTAGGC [EMSA splayed duplex]”, for which the binding result in data set [1] and in data set [2] was “binds more weakly” in each case.
